PubChem BioAssay AID652272 | Drosophila RNAi Screening Center | 2013
In all, the deposit lists about 21,000 reagents; below is an unselected part of those with a known target gene and a result. Over the whole deposit, 503 (2.4%) were called active. 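Raw plate light values, not normalised; calls rest on replicate z-scores that were not deposited; hits include reporter decreases as well as increases.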 Unmarked entries are inactive. Reagents against one gene are numbered here. Names joined by + are all predicted targets of the reagent. Not given: the amount of reagent, the time to read-out.

- Aim: 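Genome-wide knock-down search for components of Hedgehog signalling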 (primary screen)
- Cells: Drosophila clone 8 (Cl8) cells
- Knock-down reagent: long dsRNA against Drosophila genes
- Measurement: 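Firefly light from a Hedgehog-responsive ptc promoter reporter and Renilla reference light, both read on a plate reader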
- Reading the numbers: firefly Hh reporter signal: higher = more ptc reporter light; Renilla reference signal: higher = more Renilla control light
- Hit rule: 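Called a hit if the two-replicate mean z-score lies below -2 or above +3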
- Meaning of the calls: active = hit: reporter lowered or raised; inactive = not a hit

TwdlL: firefly Hh reporter signal, replicate 1 = 1.56e5; firefly Hh reporter signal, replicate 2 = 90503; Renilla reference signal, replicate 1 = 3440; Renilla reference signal, replicate 2 = 2283
VAChT #1: firefly Hh reporter signal, replicate 1 = 55952; firefly Hh reporter signal, replicate 2 = 1.74e5; Renilla reference signal, replicate 1 = 11335; Renilla reference signal, replicate 2 = 2677
VAChT #2: firefly Hh reporter signal, replicate 1 = 1.04e5; firefly Hh reporter signal, replicate 2 = 60452; Renilla reference signal, replicate 1 = 3456; Renilla reference signal, replicate 2 = 2155
Erk7 #1: firefly Hh reporter signal, replicate 1 = 1.25e5; firefly Hh reporter signal, replicate 2 = 2.84e5; Renilla reference signal, replicate 1 = 3255; Renilla reference signal, replicate 2 = 10400
Erk7 #2: firefly Hh reporter signal, replicate 1 = 93853; firefly Hh reporter signal, replicate 2 = 2.12e5; Renilla reference signal, replicate 1 = 2601; Renilla reference signal, replicate 2 = 7990
CG43996 + CG43997 #1: firefly Hh reporter signal, replicate 1 = 66283; firefly Hh reporter signal, replicate 2 = 1.72e5; Renilla reference signal, replicate 1 = 2096; Renilla reference signal, replicate 2 = 6599
CG43996 + CG43997 #2: firefly Hh reporter signal, replicate 1 = 64845; firefly Hh reporter signal, replicate 2 = 3.36e5; Renilla reference signal, replicate 1 = 2405; Renilla reference signal, replicate 2 = 12909
Abi: firefly Hh reporter signal, replicate 1 = 85194; firefly Hh reporter signal, replicate 2 = 90881; Renilla reference signal, replicate 1 = 3530; Renilla reference signal, replicate 2 = 3632
CG42812: firefly Hh reporter signal, replicate 1 = 4.80e5; firefly Hh reporter signal, replicate 2 = 83196; Renilla reference signal, replicate 1 = 22842; Renilla reference signal, replicate 2 = 2853
CG14315: firefly Hh reporter signal, replicate 1 = 5.18e5; firefly Hh reporter signal, replicate 2 = 72688; Renilla reference signal, replicate 1 = 26346; Renilla reference signal, replicate 2 = 1830
mael: firefly Hh reporter signal, replicate 1 = 1.33e5; firefly Hh reporter signal, replicate 2 = 1.07e5; Renilla reference signal, replicate 1 = 5447; Renilla reference signal, replicate 2 = 4278
CG3108: firefly Hh reporter signal, replicate 1 = 1.45e5; firefly Hh reporter signal, replicate 2 = 1.26e5; Renilla reference signal, replicate 1 = 3416; Renilla reference signal, replicate 2 = 3344

2 entries from above, reformatted:
Gene	dsRNA no.	firefly Hh reporter signal, replicate 1	firefly Hh reporter signal, replicate 2	Renilla reference signal, replicate 1	Renilla reference signal, replicate 2
CG42812	1	4.80e5	83196	22842	2853
CG14315	1	5.18e5	72688	26346	1830
